Some of the results follow. Small differences around the control level are noise.
How the values were obtained:
ppGalNAc-T3 sensor = test: T3 sensor activation Q score (MG/GFP ratio z-score vs DMSO controls) (SD units); higher = more sensor activation (inhibition of ppGalNAc-T3 glycosylation); conditions: HEK293 sensor cells; 10 µM; 6 h
Protocol: (§1)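 Cells were treated with compound at 10 uM for 6 h, then MG/GFP ratio was read by flow cytometry (10,000 cells per well, duplicate wells). Q = (R - R_neg)/SD_neg relative to DMSO vehicle controls; the signal rises when the glycosyltransferase is inhibited.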

ppGalNAc-T2 sensor = test: T2 sensor activation Q score (MG/GFP ratio z-score vs DMSO controls) (SD units); higher = more sensor activation (inhibition of ppGalNAc-T2 glycosylation); conditions: HEK293 sensor cells; 10 µM; 6 h
Protocol: as §1

Structure (SMILES) | T3 sensor activation Q score (ppGalNAc-T3 sensor) | T2 sensor activation Q score (ppGalNAc-T2 sensor)
CCOC(=O)N1CCN(Cc2ccc(F)cc2)CC1 | 0.545 | 0.735
O=S(=O)(Nc1ccccc1Cl)c1ccc(F)cc1 | 0.055 | -0.665
COc1ccc(NC2=CC(=O)CC(c3ccccc3)C2)cc1 (configuration not stated) | 0.045 | -0.315
O=[N+]([O-])c1cccc(CN2CCCC(O)C2)c1 (configuration not stated) | 0.375 | -0.275
CC(=Nc1ccccc1)C1=C(O)CC(C)(C)CC1=O | -0.395 | 0.35
CC(C)(C)c1cc(O)c(O)c(Br)c1 | -1.16 | -0.165
C=CCc1ccccc1OCC(=O)NN | 0.75 | -0.235
Cc1ccc(C(C)C)c(OCC(=O)NN)c1 | 0.865 | 0.135
CSc1ccc(CN2CCCN(C)CC2)cc1 | 0.1 | 0.405
COc1ccc(-c2ncnn2-c2ccc([N+](=O)[O-])cc2)cc1 | 0.725 | 0.915
Cc1cc(C)c(S(=O)(=O)NCC(=O)O)c(C)c1 | -0.455 | 1.35
CN(Cc1ccccc1)Cc1cccnc1 | 0.765 | -0.505
OC1CCCN(Cc2ccccc2)C1 (configuration not stated) | 0.095 | 0.41
Fc1ccc(OCCCN2CCOCC2)cc1 | -0.015 | 1.61
COc1ccc(CN2CCSCC2)c(OC)c1 | 0.66 | -0.165
Nc1nc(N)nc(-c2ccc(I)cc2)n1 | -0.3 | 1.09
Cc1ccc(-c2ccccc2N)o1 | -0.07 | 0.69
COc1ccc(NC(=O)N2CCCc3ccccc32)cc1 | -0.375 | -0.835
Cc1nn(C(=O)c2ccccc2)c2c1C(=O)CC(C)(C)C2 | 0.405 | -1.01
O=C(c1ccccc1)N1CCOCC1 | -0.39 | -0.62
Cc1ccc(C(c2ccccc2)C2([N+](=O)[O-])C(=O)c3ccccc3C2=O)c(C)c1 (configuration not stated) | -0.575 | 0.44

3 compounds out of the list, ordered by molar mass, low to high.
Structure (SMILES) | T3 sensor activation Q score (ppGalNAc-T3 sensor) | T2 sensor activation Q score (ppGalNAc-T2 sensor)
O=C(c1ccccc1)N1CCOCC1 | -0.39 | -0.62
Cc1ccc(C(C)C)c(OCC(=O)NN)c1 | 0.865 | 0.135
COc1ccc(CN2CCSCC2)c(OC)c1 | 0.66 | -0.165

From the supplement of paper PMC5407854, “Inhibitor of ppGalNAc-T3-mediated O-glycosylation blocks cancer cell invasiveness and lowers FGF23 levels” (eLife, 2017)
